Growth estimate data for 80 substances are collected here from the supplement of paper PMC5949888.

Most values lie at the floor of the assay. Slopes are relative: functional sequences can read slightly below zero. A value given as a limit tells only on which side of the number the result lay.

The test system of the data set is Saccharomyces cerevisiae PS128 hsf1 delta, HSF1(1-493) fusion. The data set is described as follows: growth estimate (transactivation domain function in HSF1 fusion, heat-shock survival) (a.u. (slope of normalised read count over time)); higher = stronger growth at 37°C, i.e. more transactivation activity. As to conditions: library: random library.
On to TKEWCLWQQKRGFSDCYTPR, for which the growth estimate is under -0.25.
The figure for LLWRIDALRIRNPAWARGLS is under -0.25; for NPRWSGPMTDSVGVEYMTKL it is -0.248; for HVVESPHR it is under -0.25.
The figure for IFVESGGQS is under -0.25; for TLLHPRGRGMLVLM it is under -0.25; for EPMGLDQWHNEEGFWRAGAA it is under -0.25.
For WRGSMEHIRITFLV, the growth estimate is under -0.25.
The figure for RPGLCYHRV is under -0.25.
As for VRLGFVGI, the growth estimate was under -0.25.
Then LCICKPVREVHESLCHGNSY, with under -0.25.
Regarding GRGWRTTMRKGWTPPPVERG, the growth estimate was under -0.25.
On to NSGFLYNNSIKL, for which the growth estimate is under -0.25.
Regarding HPLMSGVSIHTWSARTLRRR, the growth estimate was under -0.25.
Take HGLYA: the growth estimate is under -0.25.
Take RRGGLTDL: the growth estimate was under -0.25.
Regarding TMP, the growth estimate was under -0.25.
Then GWSERLRALSYLQVCIGVHR, with under -0.25.
Consider IPGGVSSDALDEGPSQFPLS, for which the growth estimate is under -0.25.
For the substance LRTVSEGRGTVRFDTWGRHR, the growth estimate is under -0.25.
Consider KWNFAVRI, for which the growth estimate is under -0.25.
Take WRG: the growth estimate is under -0.25.
Turning to IGSRRSCM, the growth estimate is under -0.25.
The figure for QLCCGIRKVVVMTANINALR is under -0.25; for LYRCGRLKVLLSVGTGTHKV it is under -0.25; for WTPRDRHVHTDEKRSRFRQM it is under -0.25.
Regarding RGVYFK, the growth estimate was -0.247.
For the substance TLSISK, the growth estimate was under -0.25.
As to IPVRDANLRERPELGNNLGG, the growth estimate is under -0.25.
Turning to DFARPTEVIQLLSRWLTGHG, the growth estimate is under -0.25.
Then VPRSATSA, with under -0.25; and VCACNSVVVQRFGQLRRAEC, with under -0.25; and CNSHGFWIRPFGLVSNGVDG, with -0.198.
In the case of GRHISR, the growth estimate was under -0.25.
NVFFAKLGYYSWGRGYN: the growth estimate was under -0.25.
IFVLVFPHRDKLRGEAGDSK: the growth estimate was under -0.25.
Take AGPGVVRWSWHSGKRFSHAT: the growth estimate was under -0.25.
In the case of YLLHSQTCIHLRTSDLTMRA, the growth estimate is under -0.25.
Consider NIGALVVGQI, for which the growth estimate was under -0.25.
For AAPGSESLRREQTLRDRSVG, the growth estimate was under -0.25.
As to DAWALGNLVLHTVALLCNMH, the growth estimate was under -0.25.
Consider TRLRQP, for which the growth estimate was under -0.25.
For the substance VLICSF, the growth estimate is under -0.25.
In the case of WSIRPPSLGPYYVGVRMTGT, the growth estimate was under -0.25.
For GRPLLWGMWRPRSNGSSVSY, the growth estimate was under -0.25.
On to CNFLELRASLGARLRGTFW, for which the growth estimate was under -0.25.
Consider RRGMIATAVVVCDIVNHVVA, for which the growth estimate was under -0.25.
For ISGGGRDLSGPSL, the growth estimate was under -0.25.
As for CWESPCA, the growth estimate is under -0.25.
Take EAYRVNLRVSQSIKKSHFER: the growth estimate was under -0.25.
In the case of QCQICLVRLMSIWPAKNAQE, the growth estimate was under -0.25.
Consider SLGKGLARGGYTCFTRLIVG, for which the growth estimate was under -0.25.
Turning to YATWPPSCSARHAHSRKNVD, the growth estimate is under -0.25.
For LDRDRDGRKGPMCYKPTKPS, the growth estimate was under -0.25.
The figure for IYLVHTVTKFYRGV is under -0.25.
As for FVLRIM, the growth estimate was under -0.25.
For TCLTVLVITGLPPIPRFLRF, the growth estimate is under -0.25.
For RVFVGVGRAYTTAGC, the growth estimate was under -0.25.
Then FYACRVDCMLLLDLRIF, with under -0.25.
For VMEDVICVSSFHRTSAQPGC, the growth estimate is under -0.25.
As to ILCSYHRRACWVS, the growth estimate is under -0.25.
In the case of PDSTN, the growth estimate was under -0.25.
Turning to QTRQTPTVSRNNDD, the growth estimate was under -0.25.
As for ETVLELRECRS, the growth estimate is under -0.25.
In the case of SKSTARNRTTLDCLGACRVP, the growth estimate was under -0.25.
For the substance SCQWSSDHRVCD, the growth estimate was under -0.25.
For the substance ADGGTEINVRRGVCR, the growth estimate was under -0.25.
As to NYGRGRAYGKLRCNK, the growth estimate is under -0.25.
As for MVWLWDPTRGLLLAWRHARR, the growth estimate was under -0.25.
With GCRAHNYTSECKGMAN, the growth estimate was under -0.25.
Take HEG: the growth estimate is under -0.25.
As to LRVTTFSIKSASRLQCRTAC, the growth estimate was under -0.25.
As to RSRVDKRLEPTQGHRSLGSE, the growth estimate is under -0.25.
As to LIVDLGGVPGYLTRSIRGEY, the growth estimate is under -0.25.
Take SGSKF: the growth estimate is under -0.25.
Regarding GCRRNSSQERQAPPFCGQSR, the growth estimate was under -0.25.
The figure for LRLLWVRLASYT is under -0.25; for TGL it is under -0.25; for WCGGATVHG it is under -0.25.
Consider EKSIYLDGMSVTNTQLDLER, for which the growth estimate was under -0.25.
